Results as given in PMC7045432.
Results are given in words; binding and its absence hold for the method and conditions named. In cells and extracts the contact can be indirect. Some entries that bind do so weakly or less than the wild type.

How the values were obtained:
[1] = biological target: T1, YTHDF1 (human (endogenous in A549)), Q9BYJ9; test: co-IP; lysates of A549 and H1299 cells transfected with YTHDF1 or YTHDF2; immunoprecipitation with YTHDF2 or YTHDF1 antibody, respectively; blot for YTHDF3; details: remark: other sources report otherwise
T1 chain: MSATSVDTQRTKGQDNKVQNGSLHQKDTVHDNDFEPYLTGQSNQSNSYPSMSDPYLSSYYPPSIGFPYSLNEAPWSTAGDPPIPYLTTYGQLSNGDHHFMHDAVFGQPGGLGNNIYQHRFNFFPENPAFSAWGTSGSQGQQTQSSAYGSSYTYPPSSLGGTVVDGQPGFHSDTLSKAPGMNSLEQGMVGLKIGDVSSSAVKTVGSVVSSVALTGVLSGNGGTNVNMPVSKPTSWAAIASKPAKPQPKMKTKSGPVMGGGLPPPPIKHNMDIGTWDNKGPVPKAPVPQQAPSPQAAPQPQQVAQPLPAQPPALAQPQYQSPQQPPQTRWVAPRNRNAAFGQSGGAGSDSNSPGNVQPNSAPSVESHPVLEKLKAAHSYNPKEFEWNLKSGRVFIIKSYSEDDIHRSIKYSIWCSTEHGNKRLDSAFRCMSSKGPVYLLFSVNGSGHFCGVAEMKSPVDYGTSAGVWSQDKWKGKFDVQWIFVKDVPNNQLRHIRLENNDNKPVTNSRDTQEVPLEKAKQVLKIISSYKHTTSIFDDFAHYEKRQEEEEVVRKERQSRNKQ

[2] = biological target: T1, YTHDF1 (human (endogenous in A549)), …; test: co-IP; endogenous co-IP from A549 cell lysates, immunoprecipitation with an antibody against either partner, western blot; for YTHDF1/2 with YTHDF3 also in cells transfected with shALKBH5 or ALKBH5 (interaction not affected); details: remark: other sources report otherwise
[3] = biological target: T2, YTHDF3 (human (endogenous in A549)), Q7Z739; test: as above; details: remark: other sources report otherwise
T2 chain: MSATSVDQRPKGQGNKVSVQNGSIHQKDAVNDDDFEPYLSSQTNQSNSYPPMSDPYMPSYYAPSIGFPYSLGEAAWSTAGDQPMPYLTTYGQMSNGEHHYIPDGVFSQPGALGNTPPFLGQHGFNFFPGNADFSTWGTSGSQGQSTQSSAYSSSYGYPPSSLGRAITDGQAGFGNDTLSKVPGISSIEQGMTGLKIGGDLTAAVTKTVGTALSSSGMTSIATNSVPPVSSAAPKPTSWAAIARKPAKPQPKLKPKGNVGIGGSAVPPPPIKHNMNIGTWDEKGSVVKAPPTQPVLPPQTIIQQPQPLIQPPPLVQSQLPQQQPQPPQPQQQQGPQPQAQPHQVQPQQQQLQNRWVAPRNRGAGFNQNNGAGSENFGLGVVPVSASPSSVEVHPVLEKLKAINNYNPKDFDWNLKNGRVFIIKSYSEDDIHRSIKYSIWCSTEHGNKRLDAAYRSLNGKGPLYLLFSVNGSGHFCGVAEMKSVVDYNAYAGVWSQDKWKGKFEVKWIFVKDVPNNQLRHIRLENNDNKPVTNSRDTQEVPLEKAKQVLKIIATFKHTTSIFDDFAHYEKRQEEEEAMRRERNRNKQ

[4] = biological target: T3, YTHDF3 (human (endogenous in A549)) (UniProt Q7Z739); test: co-IP; lysates of A549 and H1299 cells transfected with YTHDF1 or YTHDF2; immunoprecipitation with YTHDF2 or YTHDF1 antibody, respectively; blot for YTHDF3
T3 sequence: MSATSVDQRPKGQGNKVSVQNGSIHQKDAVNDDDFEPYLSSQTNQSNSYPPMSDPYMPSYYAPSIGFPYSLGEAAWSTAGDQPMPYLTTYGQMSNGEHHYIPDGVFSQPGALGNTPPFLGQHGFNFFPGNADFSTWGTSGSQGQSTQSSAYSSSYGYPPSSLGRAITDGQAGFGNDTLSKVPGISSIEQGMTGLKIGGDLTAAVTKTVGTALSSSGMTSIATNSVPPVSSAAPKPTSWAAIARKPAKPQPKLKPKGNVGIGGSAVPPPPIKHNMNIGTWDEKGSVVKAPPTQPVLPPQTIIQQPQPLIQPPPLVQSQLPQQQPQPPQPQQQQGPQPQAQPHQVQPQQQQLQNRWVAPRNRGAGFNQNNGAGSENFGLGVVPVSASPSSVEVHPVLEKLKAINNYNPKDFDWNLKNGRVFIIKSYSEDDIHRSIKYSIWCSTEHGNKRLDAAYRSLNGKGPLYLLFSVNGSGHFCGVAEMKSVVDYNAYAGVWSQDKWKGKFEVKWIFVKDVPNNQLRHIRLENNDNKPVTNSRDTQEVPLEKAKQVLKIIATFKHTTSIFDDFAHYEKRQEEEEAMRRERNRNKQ

B1: YTHDF3, Q7Z739 1-585 (protein)
chain: MSATSVDQRPKGQGNKVSVQNGSIHQKDAVNDDDFEPYLSSQTNQSNSYPPMSDPYMPSYYAPSIGFPYSLGEAAWSTAGDQPMPYLTTYGQMSNGEHHYIPDGVFSQPGALGNTPPFLGQHGFNFFPGNADFSTWGTSGSQGQSTQSSAYSSSYGYPPSSLGRAITDGQAGFGNDTLSKVPGISSIEQGMTGLKIGGDLTAAVTKTVGTALSSSGMTSIATNSVPPVSSAAPKPTSWAAIARKPAKPQPKLKPKGNVGIGGSAVPPPPIKHNMNIGTWDEKGSVVKAPPTQPVLPPQTIIQQPQPLIQPPPLVQSQLPQQQPQPPQPQQQQGPQPQAQPHQVQPQQQQLQNRWVAPRNRGAGFNQNNGAGSENFGLGVVPVSASPSSVEVHPVLEKLKAINNYNPKDFDWNLKNGRVFIIKSYSEDDIHRSIKYSIWCSTEHGNKRLDAAYRSLNGKGPLYLLFSVNGSGHFCGVAEMKSVVDYNAYAGVWSQDKWKGKFEVKWIFVKDVPNNQLRHIRLENNDNKPVTNSRDTQEVPLEKAKQVLKIIATFKHTTSIFDDFAHYEKRQEEEEAMRRERNRNKQ
binding [1]: binds | binding [2]: binds

B2: YTHDF1, Q9BYJ9 1-559 (protein)
chain: MSATSVDTQRTKGQDNKVQNGSLHQKDTVHDNDFEPYLTGQSNQSNSYPSMSDPYLSSYYPPSIGFPYSLNEAPWSTAGDPPIPYLTTYGQLSNGDHHFMHDAVFGQPGGLGNNIYQHRFNFFPENPAFSAWGTSGSQGQQTQSSAYGSSYTYPPSSLGGTVVDGQPGFHSDTLSKAPGMNSLEQGMVGLKIGDVSSSAVKTVGSVVSSVALTGVLSGNGGTNVNMPVSKPTSWAAIASKPAKPQPKMKTKSGPVMGGGLPPPPIKHNMDIGTWDNKGPVPKAPVPQQAPSPQAAPQPQQVAQPLPAQPPALAQPQYQSPQQPPQTRWVAPRNRNAAFGQSGGAGSDSNSPGNVQPNSAPSVESHPVLEKLKAAHSYNPKEFEWNLKSGRVFIIKSYSEDDIHRSIKYSIWCSTEHGNKRLDSAFRCMSSKGPVYLLFSVNGSGHFCGVAEMKSPVDYGTSAGVWSQDKWKGKFDVQWIFVKDVPNNQLRHIRLENNDNKPVTNSRDTQEVPLEKAKQVLKIISSYKHTTSIFDDFAHYEKRQEEEEVVRKERQSRNKQ
binding [3]: binds

B3: YTHDF1, overexpressed from pcDNA 3.1 (protein, UniProt Q9BYJ9 2-559)
chain: SATSVDTQRTKGQDNKVQNGSLHQKDTVHDNDFEPYLTGQSNQSNSYPSMSDPYLSSYYPPSIGFPYSLNEAPWSTAGDPPIPYLTTYGQLSNGDHHFMHDAVFGQPGGLGNNIYQHRFNFFPENPAFSAWGTSGSQGQQTQSSAYGSSYTYPPSSLGGTVVDGQPGFHSDTLSKAPGMNSLEQGMVGLKIGDVSSSAVKTVGSVVSSVALTGVLSGNGGTNVNMPVSKPTSWAAIASKPAKPQPKMKTKSGPVMGGGLPPPPIKHNMDIGTWDNKGPVPKAPVPQQAPSPQAAPQPQQVAQPLPAQPPALAQPQYQSPQQPPQTRWVAPRNRNAAFGQSGGAGSDSNSPGNVQPNSAPSVESHPVLEKLKAAHSYNPKEFEWNLKSGRVFIIKSYSEDDIHRSIKYSIWCSTEHGNKRLDSAFRCMSSKGPVYLLFSVNGSGHFCGVAEMKSPVDYGTSAGVWSQDKWKGKFDVQWIFVKDVPNNQLRHIRLENNDNKPVTNSRDTQEVPLEKAKQVLKIISSYKHTTSIFDDFAHYEKRQEEEEVVRKERQSRNKQ
binding [4]: binds
